# Measured values: patent US8426447B2, “Spiro-tricyclic ring compounds as beta-secretase modulators and methods of use” (Amgen Inc., priority 2008, dated 2013)
# Chains of the proteins cited; added tags and fusions are not shown. Residues count along the entry.
# UniProt P56817, 46-501 limits assumed: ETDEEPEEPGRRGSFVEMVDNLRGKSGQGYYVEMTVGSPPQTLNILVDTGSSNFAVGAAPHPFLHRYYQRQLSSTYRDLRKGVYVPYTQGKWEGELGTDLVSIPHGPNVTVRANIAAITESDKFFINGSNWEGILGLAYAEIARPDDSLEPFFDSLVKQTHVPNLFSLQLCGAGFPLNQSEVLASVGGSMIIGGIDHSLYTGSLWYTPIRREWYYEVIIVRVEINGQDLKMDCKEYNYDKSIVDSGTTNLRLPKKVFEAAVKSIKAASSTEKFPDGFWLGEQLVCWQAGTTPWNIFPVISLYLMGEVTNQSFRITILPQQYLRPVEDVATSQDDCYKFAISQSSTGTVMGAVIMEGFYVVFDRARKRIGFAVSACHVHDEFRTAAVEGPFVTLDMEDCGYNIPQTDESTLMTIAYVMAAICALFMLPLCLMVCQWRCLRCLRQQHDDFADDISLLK
# Structures were worked out from names or drawings and are uncertain.
# Columns and labels:
# BACE1 [1] = biological target: T1, BACE1 (Homo sapiens, UniProt P56817); assay: In Vitro Enzymatic BACE FRET (Fluorescence Resonance Energy Transfer) Assay; type: biochemical; conditions: read-out: BACE1 FRET assay
# BACE1 [2] = biological target: T1, BACE1; assay: In Vitro BACE Cell-based Assay (HEK cell assay): Aβ40 in conditioned medium of cells stably expressing Amyloid Precursor Protein, sandwich ELISA; conditions: read-out: HEK cell assay
structure (smiles),measurement,setting,value
Cc1ccc(-c2cc3c(cn2)Oc2ccc(-c4cccnc4F)cc2[C@@]32COC(N)=N2)cn1,IC50,BACE1 [1],< 100 nM
same,IC50,BACE1 [2],< 100 nM
